Reference: doi:10.1101/2022.12.10.519866 (bioRxiv, 2022)
Results are given in words; binding and its absence hold for the method and conditions named. Binding calls can cover weak binding; strength is not graded here.

Chains of the proteins cited; added tags and fusions are not shown. Lines headed by an entry give the natural chain unless they say otherwise; changes in a name come on top.
UniProt O88738: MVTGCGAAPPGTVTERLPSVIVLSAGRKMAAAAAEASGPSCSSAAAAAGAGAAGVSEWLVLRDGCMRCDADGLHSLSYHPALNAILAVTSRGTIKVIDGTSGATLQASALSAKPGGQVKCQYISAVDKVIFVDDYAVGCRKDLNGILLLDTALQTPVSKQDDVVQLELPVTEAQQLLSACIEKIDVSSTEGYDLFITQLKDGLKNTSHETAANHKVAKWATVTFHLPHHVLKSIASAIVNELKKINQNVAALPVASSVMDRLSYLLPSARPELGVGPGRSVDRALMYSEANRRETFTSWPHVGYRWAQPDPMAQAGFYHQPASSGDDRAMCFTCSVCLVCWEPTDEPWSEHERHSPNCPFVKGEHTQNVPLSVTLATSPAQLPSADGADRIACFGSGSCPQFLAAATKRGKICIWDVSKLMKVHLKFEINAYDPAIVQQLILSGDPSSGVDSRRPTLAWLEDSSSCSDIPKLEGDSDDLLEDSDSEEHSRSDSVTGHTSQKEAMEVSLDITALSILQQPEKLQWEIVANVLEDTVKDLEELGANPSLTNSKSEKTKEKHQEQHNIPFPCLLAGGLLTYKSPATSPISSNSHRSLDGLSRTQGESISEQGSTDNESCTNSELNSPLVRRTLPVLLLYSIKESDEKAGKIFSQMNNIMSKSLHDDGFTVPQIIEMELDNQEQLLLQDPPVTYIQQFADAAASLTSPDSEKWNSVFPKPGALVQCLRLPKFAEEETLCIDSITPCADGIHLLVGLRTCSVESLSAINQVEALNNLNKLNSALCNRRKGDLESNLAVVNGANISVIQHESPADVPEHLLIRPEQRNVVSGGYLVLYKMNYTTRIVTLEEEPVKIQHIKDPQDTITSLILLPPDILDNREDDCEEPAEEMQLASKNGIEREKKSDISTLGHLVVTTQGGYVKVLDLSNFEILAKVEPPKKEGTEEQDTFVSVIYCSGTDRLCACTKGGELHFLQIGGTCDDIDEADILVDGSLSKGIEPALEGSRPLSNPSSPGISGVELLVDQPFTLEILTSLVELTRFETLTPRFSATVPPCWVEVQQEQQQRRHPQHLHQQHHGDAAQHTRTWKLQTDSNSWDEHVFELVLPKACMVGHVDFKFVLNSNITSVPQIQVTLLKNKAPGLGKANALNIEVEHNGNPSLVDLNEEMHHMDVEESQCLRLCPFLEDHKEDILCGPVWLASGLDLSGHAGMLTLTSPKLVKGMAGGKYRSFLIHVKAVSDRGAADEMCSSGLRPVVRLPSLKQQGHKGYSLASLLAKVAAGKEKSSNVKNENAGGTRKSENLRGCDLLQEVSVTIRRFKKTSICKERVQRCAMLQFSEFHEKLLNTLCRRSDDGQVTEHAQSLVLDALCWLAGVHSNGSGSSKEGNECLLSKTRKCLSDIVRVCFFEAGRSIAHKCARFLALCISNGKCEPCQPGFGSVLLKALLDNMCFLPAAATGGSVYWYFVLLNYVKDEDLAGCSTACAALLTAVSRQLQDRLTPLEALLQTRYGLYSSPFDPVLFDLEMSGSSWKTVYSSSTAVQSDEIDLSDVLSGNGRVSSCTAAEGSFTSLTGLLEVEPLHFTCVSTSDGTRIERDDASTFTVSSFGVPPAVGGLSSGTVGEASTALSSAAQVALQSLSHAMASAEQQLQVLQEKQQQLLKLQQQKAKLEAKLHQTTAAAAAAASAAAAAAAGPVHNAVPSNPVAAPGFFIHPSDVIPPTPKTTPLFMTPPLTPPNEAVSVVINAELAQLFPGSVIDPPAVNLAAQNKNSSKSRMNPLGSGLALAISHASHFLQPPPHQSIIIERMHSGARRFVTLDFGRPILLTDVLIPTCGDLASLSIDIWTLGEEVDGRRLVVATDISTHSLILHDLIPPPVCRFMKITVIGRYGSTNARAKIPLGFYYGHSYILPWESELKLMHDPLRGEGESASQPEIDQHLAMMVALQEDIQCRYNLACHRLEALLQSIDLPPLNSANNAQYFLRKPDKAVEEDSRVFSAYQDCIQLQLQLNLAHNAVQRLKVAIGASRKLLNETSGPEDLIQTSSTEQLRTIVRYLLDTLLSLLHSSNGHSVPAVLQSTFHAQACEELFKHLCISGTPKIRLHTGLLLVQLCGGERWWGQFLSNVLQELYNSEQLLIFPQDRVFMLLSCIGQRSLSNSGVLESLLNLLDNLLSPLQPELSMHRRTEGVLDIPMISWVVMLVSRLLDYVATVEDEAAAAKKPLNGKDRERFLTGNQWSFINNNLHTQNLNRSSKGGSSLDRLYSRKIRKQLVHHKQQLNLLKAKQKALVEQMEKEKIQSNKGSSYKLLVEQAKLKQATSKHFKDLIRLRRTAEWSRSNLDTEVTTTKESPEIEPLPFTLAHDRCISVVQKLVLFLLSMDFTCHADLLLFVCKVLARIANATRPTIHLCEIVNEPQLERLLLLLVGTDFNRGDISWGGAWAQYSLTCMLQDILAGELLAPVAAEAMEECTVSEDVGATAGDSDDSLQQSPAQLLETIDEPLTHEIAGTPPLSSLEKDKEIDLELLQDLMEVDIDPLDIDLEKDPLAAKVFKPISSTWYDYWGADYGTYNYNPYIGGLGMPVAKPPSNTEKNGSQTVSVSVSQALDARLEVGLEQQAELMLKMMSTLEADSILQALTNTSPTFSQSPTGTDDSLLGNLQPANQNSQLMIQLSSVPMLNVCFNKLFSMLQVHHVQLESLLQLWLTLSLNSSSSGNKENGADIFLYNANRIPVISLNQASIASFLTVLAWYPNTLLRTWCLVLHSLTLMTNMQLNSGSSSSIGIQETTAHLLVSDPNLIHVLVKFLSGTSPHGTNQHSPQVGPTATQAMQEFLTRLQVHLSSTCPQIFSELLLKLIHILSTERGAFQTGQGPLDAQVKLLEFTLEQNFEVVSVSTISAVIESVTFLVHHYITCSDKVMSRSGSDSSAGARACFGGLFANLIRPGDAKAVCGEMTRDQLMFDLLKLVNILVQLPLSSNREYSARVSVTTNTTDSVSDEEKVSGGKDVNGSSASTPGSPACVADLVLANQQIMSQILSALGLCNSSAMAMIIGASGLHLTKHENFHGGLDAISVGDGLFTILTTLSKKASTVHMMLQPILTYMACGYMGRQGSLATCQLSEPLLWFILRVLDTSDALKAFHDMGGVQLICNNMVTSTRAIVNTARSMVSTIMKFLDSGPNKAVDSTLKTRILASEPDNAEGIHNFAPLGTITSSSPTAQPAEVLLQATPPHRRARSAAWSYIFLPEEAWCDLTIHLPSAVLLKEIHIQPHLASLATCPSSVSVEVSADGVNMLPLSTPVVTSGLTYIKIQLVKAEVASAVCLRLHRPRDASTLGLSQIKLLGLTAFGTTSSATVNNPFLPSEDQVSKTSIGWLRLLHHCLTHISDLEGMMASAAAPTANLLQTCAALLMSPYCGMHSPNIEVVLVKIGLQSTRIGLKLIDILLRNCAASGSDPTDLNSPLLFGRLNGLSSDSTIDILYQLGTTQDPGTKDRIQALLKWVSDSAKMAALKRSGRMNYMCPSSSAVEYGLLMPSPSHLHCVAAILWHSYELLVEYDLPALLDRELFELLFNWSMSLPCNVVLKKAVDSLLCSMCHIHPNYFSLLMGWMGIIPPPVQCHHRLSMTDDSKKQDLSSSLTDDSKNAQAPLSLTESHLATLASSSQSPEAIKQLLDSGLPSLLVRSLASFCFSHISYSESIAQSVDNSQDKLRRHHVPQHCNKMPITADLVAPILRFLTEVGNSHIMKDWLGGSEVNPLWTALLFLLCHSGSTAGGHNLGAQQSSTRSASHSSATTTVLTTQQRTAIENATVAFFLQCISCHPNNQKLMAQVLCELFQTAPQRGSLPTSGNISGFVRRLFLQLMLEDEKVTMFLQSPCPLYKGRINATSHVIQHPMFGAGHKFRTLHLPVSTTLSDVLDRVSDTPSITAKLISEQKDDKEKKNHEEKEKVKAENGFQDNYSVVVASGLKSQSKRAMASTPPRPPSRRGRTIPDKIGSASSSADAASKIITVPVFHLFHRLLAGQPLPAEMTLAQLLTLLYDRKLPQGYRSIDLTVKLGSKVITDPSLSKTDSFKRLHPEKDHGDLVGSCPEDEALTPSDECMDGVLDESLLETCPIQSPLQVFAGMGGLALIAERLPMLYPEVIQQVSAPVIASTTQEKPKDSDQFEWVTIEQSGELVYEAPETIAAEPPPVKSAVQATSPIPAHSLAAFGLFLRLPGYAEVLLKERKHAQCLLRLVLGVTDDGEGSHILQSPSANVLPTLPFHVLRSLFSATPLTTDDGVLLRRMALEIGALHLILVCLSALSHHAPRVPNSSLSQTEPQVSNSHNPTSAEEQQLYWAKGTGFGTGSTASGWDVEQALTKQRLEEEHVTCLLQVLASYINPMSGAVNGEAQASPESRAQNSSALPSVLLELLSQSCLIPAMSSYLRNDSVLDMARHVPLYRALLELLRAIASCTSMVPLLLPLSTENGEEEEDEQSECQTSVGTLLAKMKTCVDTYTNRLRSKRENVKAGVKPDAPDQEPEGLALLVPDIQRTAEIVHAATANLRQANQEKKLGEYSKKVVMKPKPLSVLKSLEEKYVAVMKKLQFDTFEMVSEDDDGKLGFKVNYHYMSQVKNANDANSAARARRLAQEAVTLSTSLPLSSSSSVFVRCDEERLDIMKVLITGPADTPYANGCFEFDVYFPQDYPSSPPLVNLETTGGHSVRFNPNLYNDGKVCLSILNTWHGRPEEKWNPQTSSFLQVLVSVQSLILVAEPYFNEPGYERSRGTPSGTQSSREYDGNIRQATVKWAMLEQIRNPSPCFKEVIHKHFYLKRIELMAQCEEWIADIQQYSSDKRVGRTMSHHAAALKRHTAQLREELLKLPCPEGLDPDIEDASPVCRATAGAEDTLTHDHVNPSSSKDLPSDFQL
UniProt P55211: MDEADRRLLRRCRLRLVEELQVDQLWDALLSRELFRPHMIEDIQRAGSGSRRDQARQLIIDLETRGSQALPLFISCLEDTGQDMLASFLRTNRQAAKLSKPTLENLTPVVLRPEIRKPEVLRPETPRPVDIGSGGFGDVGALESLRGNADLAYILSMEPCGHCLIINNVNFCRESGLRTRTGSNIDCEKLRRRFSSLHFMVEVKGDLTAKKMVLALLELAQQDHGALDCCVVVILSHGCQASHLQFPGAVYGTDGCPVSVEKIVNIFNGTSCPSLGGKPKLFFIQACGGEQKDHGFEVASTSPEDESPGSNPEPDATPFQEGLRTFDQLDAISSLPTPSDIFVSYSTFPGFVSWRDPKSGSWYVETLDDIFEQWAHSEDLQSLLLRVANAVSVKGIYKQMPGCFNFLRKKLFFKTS

Molecular target: 3×FLAG-tagged full-length mouse BIRC6 (mouse, UniProt O88738 1-4882)
Experiment: SEC

binding: binds
Substance: His-Caspase9-4M (E306A–D315A–D330A-C287A) (from UniProt P55211) (enzyme)
